In this assay the target is T1, recombinant D-AAO (Glutamicibacter protophormiae, UniProt Q7X2D3).
T1 construct: The restriction sites NdeI and BamHI were attached to the dao gene by PCR; made in house; host or cells: E. coli BL21(DE3)
Description: Substrate specificity of the recombinant D-AAO (photometric peroxidase/o-dianisidine test). The assay is classed as biochemical, Arthrobacter protophormiae. Conditions: read-out: Relative activity. As for the experimental part:
To isolate D-AAO-forming microorganisms, soil samples were plated out on a nutrient medium in which coryneform bacteria can be concentrated: Na propionate 0.20 g; KNO3 0.01 g; KH2PO4 0.10 g; NaCl 0.25 g; MgSO4.7 H2O 0.10 g; CaCO3 0.02g; trace elements; vitamin solution; cycloheximide 0.05 g; if appropriate, agar 20.00 g; final pH 7.0. Microorganisms which grew on this medium were then transinoculated into a complex medium (DSM 65) with the following composition (per 1l): glucose 4.00 g; yeast extract 4.00 g; malt extract 10.00 g; agar 20 g; final pH 7.2. The strains were then multiplied in liquid medium (DSM 65), harvested by centrifugation, broken down, and the cell-free supernatant was obtained by centrifugation (=crude extract). This crude extract was then employed as an enzyme source for the photometric test for D-AAO activity. The test batch contained: 20 μl amino acid solution (100 mM); 80 μl TEA/o-dianisidine buffer; 10 μl peroxidase soln. (1,000 U/ml); 70 μl H2O; 20 μl crude extract. The measurement was carried out at 436 nm; 1 U corresponds to an amount of enzyme which converts 1 μmol of amino acid or 1 μmol of o-dianisidine per min (extinction coefficient ε for o-dianisidine=8.1 mM^−1 cm^−1).
A partial substrate spectrum was recorded for D-AAO (Table 2).
The stereoselectivity of the D-AAO was tested with the amino acids L-leucine, L-methionine and L-lysine. […]

Chains of the proteins cited; added tags and fusions are not shown. Lines headed by an entry give the natural chain unless they say otherwise; changes in a name come on top.
UniProt Q7X2D3: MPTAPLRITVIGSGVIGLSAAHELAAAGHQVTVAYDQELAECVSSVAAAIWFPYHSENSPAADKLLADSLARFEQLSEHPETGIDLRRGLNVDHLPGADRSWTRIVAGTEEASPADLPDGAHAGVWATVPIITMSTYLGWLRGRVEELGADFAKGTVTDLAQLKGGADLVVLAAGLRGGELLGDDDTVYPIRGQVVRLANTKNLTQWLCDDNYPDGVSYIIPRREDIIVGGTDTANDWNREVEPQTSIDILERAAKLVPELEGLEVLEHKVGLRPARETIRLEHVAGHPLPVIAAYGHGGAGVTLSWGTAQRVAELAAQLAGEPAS

In the case of `NCCC[C@@H](N)C(=O)O` [D-Ornithine], the activity at 10000 µM was 15%.

The values are drawn from patent publication US7195900B2, “Cloning and expression of D-amino acid oxidase from arthrobacter protophormiae” (Degussa AG, priority 2002, dated 2007).
